Measured data: PubChem BioAssay AID504784 (Drosophila RNAi Screening Center, 2011)
In all, the deposit lists about 17,000 reagents; below is a random part of those that have a named target and a result. 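Each column is one replicate's B-score; the combined score over replicates was not deposited, so single values may mislead.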 A plus sign joins genes that one reagent is predicted to hit.

- Test: 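Fly genes whose silencing alters how much lipid cells keep in droplets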 (primary screen)
- Cells: Drosophila Kc167 embryonic cells
- Reagents: long dsRNA against Drosophila genes, about 250 ng dsRNA per well
- Time to read-out: 4 days
- Challenge: cells fed 400 µM oleic acid bound to BSA
- Measured: 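Microscope images give a droplet-to-nucleus area ratio, taken as log and converted to a screen-wide B-score; higher values mean greater lipid storage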
- Direction: droplet/nuclear area B-score: higher = more stored lipid (overstorage)

The first 8 records, ahead of the listing:
| gene | PubChem SID | droplet/nuclear area B-score, replicate 1 | droplet/nuclear area B-score, replicate 2 | droplet/nuclear area B-score, replicate 3 |
| --- | --- | --- | --- | --- |
| Mob4 | SID104184785 | -1.43 | -0.883 | – |
| CG32832 | SID104181354 | -0.28 | 0.0731 | – |
| CG30043 | SID104186077 | -0.774 | 1.35 | – |
| sad | SID104196422 | 2.94 | 1.44 | – |
| eIF4H1 | SID104200068 | -1.57 | -0.619 | – |
| CG8097 | SID104199871 | 2.03 | -0.666 | – |
| Cyp4ac3 | SID104183096 | 3.95 | -0.753 | – |
| lncRNA:iab4 | SID104201831 | -0.0492 | 0.675 | – |

The list itself, repeating the preview:
| gene | PubChem SID | droplet/nuclear area B-score, replicate 1 | droplet/nuclear area B-score, replicate 2 | droplet/nuclear area B-score, replicate 3 |
| --- | --- | --- | --- | --- |
| Mob4 | SID104184785 | -1.43 | -0.883 | – |
| CG32832 | SID104181354 | -0.28 | 0.0731 | – |
| CG30043 | SID104186077 | -0.774 | 1.35 | – |
| sad | SID104196422 | 2.94 | 1.44 | – |
| eIF4H1 | SID104200068 | -1.57 | -0.619 | – |
| CG8097 | SID104199871 | 2.03 | -0.666 | – |
| Cyp4ac3 | SID104183096 | 3.95 | -0.753 | – |
| lncRNA:iab4 | SID104201831 | -0.0492 | 0.675 | – |
| CG4476 | SID104190216 | 0.289 | -1 | – |
| CG33500 | SID104188907 | -2.09 | -2.54 | – |
| CG31544 (retired record) | SID104192258 | -0.64 | -0.59 | – |
| cyr | SID104197809 | 1.57 | 0.623 | – |
| cyr | SID104197810 | -0.505 | 7.72 | – |
| cyr | SID104197813 | 0.841 | -0.764 | – |
| VhaPPA1-1 | SID104195962 | -0.179 | 2.66 | – |
| Xpd | SID104184458 | -1.15 | 1.37 | – |
| cert | SID104189466 | -1.36 | -2.07 | – |
| Cypl | SID104188154 | 0.596 | -0.00339 | – |
| dec | SID104198551 | 0.237 | 0.182 | – |
| dec | SID104201209 | -0.127 | 1.14 | – |
| CG8117 | SID104199874 | -2.82 | 3.2 | – |
| CG15711 | SID104186374 | 0.665 | – | – |
| mbl | SID104185449 | 2.23 | -1.94 | – |
| mbl | SID104186241 | -2.72 | – | – |
| mbl | SID104187443 | 0.627 | 0.527 | – |
| mbl | SID104202545 | 0.787 | 1.41 | – |
| frm | SID104189545 | 0.253 | -0.997 | -0.012 |
| CG14411 | SID104199389 | 0.389 | 0.562 | – |
| Osi10b | SID104192071 | 1.3 | 1.1 | – |
| CG14419 | SID104197708 | -1.04 | -1.04 | – |
| CG12065 | SID104197590 | -0.715 | 0.398 | -1.44 |
| CG12065 | SID104197591 | 0.242 | -0.361 | – |
| Spn28Db | SID104201617 | -0.776 | 2.22 | – |
| Pa1 | SID104199214 | -2.36 | 0.197 | 0.592 |
| esg | SID104183322 | 0.905 | -1.59 | – |
| Hel25E | SID104183134 | -2.88 | 0.383 | – |
| Slmap | SID104183591 | -0.43 | 0.667 | – |
| Vps2 | SID104194678 | 2.74 | 11.7 | – |
| Cdep | SID104191820 | 0.711 | -0.575 | – |
| Cdep | SID104192012 | -2.37 | 1.41 | – |
| Cdep | SID104192083 | -0.643 | 0.137 | – |
| CG16965 | SID104182339 | -0.156 | -1.45 | – |
| CG33489 | SID104190380 | 0.032 | -0.432 | – |
| CG14718 | SID104194733 | 0.72 | 2.83 | – |
| Tao | SID104199365 | -2.1 | -3.55 | 0.483 |
| Tao | SID104199366 | – | -2.51 | – |
| Tao | SID104202045 | 0.83 | -1.15 | – |
| Taf1 | SID104192399 | -1.88 | -2.23 | – |
| Sgs5 | SID104196654 | -0.439 | 0.574 | – |
| RpS4 | SID104191064 | 3.78 | 4.24 | – |
| mthl3 | SID104186789 | 0.0314 | -1.35 | – |
| Dred | SID104190849 | -0.102 | -0.475 | – |
| Dred | SID104190851 | -0.183 | 0.701 | – |
| CG7296 | SID104182834 | – | -1.77 | 2.83 |
| CG7296 | SID104201838 | 3.31 | -1.78 | – |
| CG15256 | SID104181732 | 0.911 | -0.614 | – |
| Lcp2 | SID104187248 | -0.515 | -0.832 | – |
| CCHa1-R | SID104186248 | 0.2 | 0.356 | – |
| CCHa1-R | SID104186507 | -0.0906 | -0.359 | – |
| msd5 | SID104188352 | 0.554 | -0.315 | – |
| CG3502 + CG9863 | SID104184370 | 0.00689 | 0.193 | – |
| fliI | SID104200370 | -1.43 | 0.00321 | – |
| CG17059 | SID104186446 | 0.00107 | -1.88 | – |
| Cpr78Ca | SID104191443 | 1.93 | 0.852 | – |
| mus81 | SID104197972 | 0.246 | 1.15 | – |
| mus81 | SID104198436 | -0.849 | 1.42 | – |
| RtcB | SID104183072 | 0.0194 | -1.09 | – |
| CG31639 | SID104180702 | 0.646 | -0.66 | – |
| l(3)73Ah | SID104191151 | 0.892 | -0.383 | – |
| Tep5Psi | SID104181975 | 1.71 | -0.794 | – |
| Tep5Psi | SID104181976 | -0.392 | -0.773 | – |
| tos | SID104183416 | -0.0212 | -1.03 | – |
| PpD6 | SID104180566 | 1.99 | 1.24 | – |
| PpD6 | SID104202688 | 0.66 | 2.92 | – |
| Cks30A | SID104183084 | -0.219 | -0.735 | – |
| RpS8 | SID104196110 | 2.91 | 0.457 | – |
| CG3257 | SID104184143 | -1.04 | -0.726 | – |
| Galphas | SID104184408 | 1.22 | 0.651 | – |
| MFS12 | SID104187060 | -0.0302 | 0.512 | – |
| CG7772 | SID104199848 | 0.546 | 0.618 | – |
| blanks | SID104189549 | -0.731 | -0.159 | – |
| CG11050 | SID104181917 | -4.05 | -2.54 | – |
| CG7546 | SID104188677 | -0.982 | -0.612 | – |
| CG7546 | SID104190663 | 0.455 | -0.817 | -0.157 |
| CG7546 | SID104201698 | -0.954 | -0.844 | – |
